Numbering of substitutions follows the chain as printed. Results are given in words; binding and its absence hold for the method and conditions named. Some binding calls cover weakened binding; strength is not graded here.
What was measured:
[1] = biological target: recombinant human DLL4, C-terminally His-tagged extracellular domain (R&D Systems) (human) (UniProt Q9NR61); assay: binding ELISA, coated rhDLL4
[2] = biological target: recombinant human DLL4, C-terminally His-tagged extracellular domain (R&D Systems) (human) (UniProt Q9NR61); assay: binding ELISA, coated rhDLL4 [binding to rhDLL4]
[3] = biological target: recombinant human DLL4, C-terminally His-tagged extracellular domain (R&D Systems) (human) (UniProt Q9NR61); assay: competition ELISA: biotinylated hDLL4 + binder, binding to coated hNotch1/Fc
[4] = biological target: recombinant human DLL4, C-terminally His-tagged extracellular domain (R&D Systems) (human) (UniProt Q9NR61); assay: SPR binning
[5] = biological target: recombinant human DLL4, C-terminally His-tagged extracellular domain (R&D Systems) (human) (UniProt Q9NR61); assay: AlphaScreen competition: biotinylated hDLL4 vs hNotch1/Fc
[6] = biological target: full length human DLL4 on overexpressing CHO or HEK293 cells (human) (UniProt Q9NR61); assay: FACS on HEK293-hDLL4 cells
[7] = biological target: full length mouse DLL4 on overexpressing CHO or HEK293 cells (mouse) (UniProt Q9JI71); assay: FACS on HEK293-mDLL4 cells
[8] = biological target: cynomolgus DLL4 on overexpressing cells (cynomolgus (SEQ ID NO: 418 is the rhesus entry, stated 100% identical)); assay: FACS on HEK293-cDLL4 cells
[9] = biological target: recombinant mouse DLL4, C-terminally His-tagged extracellular domain (R&D Systems) (mouse) (UniProt Q9JI71); assay: binding ELISA, coated rmDLL4
[10] = biological target: recombinant mouse DLL4, C-terminally His-tagged extracellular domain (R&D Systems) (mouse) (UniProt Q9JI71); assay: binding ELISA, coated rmDLL4 [binding to rmDLL4]
[11] = biological target: full length mouse DLL4 on overexpressing CHO or HEK293 cells (mouse) (UniProt Q9JI71); assay: FMAT competition: labelled hNotch1/Fc on CHO-mDLL4 cells
[12] = biological target: full length human DLL4 on overexpressing CHO or HEK293 cells (human) (UniProt Q9NR61); assay: FMAT competition: labelled hNotch1/Fc on CHO-hDLL4 cells
[13] = biological target: full length human DLL4 on overexpressing CHO or HEK293 cells (human) (UniProt Q9NR61); assay: FACS titration on human DLL4 overexpressing cells, detection with anti-c-myc Alexa647, mean MCF
[14] = biological target: full length mouse DLL4 on overexpressing CHO or HEK293 cells (mouse) (UniProt Q9JI71); assay: FACS titration on mouse DLL4 overexpressing cells, detection with anti-c-myc Alexa647, mean MCF
[15] = biological target: cynomolgus DLL4 on overexpressing cells (cynomolgus (SEQ ID NO: 418 is the rhesus entry, stated 100% identical)); assay: FACS titration on cynomolgus DLL4 expressing cells, detection with anti-c-myc Alexa647, mean MCF

Chains of the proteins cited; added tags and fusions are not shown. Lines headed by an entry give the natural chain unless they say otherwise; changes in a name come on top. A line that says so, or that is headed by a name, gives the form on record, which may keep a tag or linker. Residues count along the entry.
UniProt Q9NR61: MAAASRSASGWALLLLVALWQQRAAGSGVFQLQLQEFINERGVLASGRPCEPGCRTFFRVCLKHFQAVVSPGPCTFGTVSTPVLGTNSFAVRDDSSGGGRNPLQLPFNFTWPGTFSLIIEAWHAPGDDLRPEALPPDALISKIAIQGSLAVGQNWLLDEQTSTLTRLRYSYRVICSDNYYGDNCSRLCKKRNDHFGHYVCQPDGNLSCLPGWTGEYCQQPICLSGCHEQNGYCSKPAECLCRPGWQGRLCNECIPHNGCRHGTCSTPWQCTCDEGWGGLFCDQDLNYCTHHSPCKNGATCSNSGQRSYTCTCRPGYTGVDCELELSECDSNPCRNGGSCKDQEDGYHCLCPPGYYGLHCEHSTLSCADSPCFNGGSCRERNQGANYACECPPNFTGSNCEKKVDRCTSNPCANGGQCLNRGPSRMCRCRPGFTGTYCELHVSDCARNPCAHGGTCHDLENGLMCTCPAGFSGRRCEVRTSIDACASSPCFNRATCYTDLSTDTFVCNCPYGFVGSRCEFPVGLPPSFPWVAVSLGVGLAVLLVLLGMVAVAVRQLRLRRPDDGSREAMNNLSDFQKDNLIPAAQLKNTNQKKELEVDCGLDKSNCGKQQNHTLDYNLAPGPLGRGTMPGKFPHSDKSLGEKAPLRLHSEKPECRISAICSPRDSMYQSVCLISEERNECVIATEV
UniProt Q9JI71: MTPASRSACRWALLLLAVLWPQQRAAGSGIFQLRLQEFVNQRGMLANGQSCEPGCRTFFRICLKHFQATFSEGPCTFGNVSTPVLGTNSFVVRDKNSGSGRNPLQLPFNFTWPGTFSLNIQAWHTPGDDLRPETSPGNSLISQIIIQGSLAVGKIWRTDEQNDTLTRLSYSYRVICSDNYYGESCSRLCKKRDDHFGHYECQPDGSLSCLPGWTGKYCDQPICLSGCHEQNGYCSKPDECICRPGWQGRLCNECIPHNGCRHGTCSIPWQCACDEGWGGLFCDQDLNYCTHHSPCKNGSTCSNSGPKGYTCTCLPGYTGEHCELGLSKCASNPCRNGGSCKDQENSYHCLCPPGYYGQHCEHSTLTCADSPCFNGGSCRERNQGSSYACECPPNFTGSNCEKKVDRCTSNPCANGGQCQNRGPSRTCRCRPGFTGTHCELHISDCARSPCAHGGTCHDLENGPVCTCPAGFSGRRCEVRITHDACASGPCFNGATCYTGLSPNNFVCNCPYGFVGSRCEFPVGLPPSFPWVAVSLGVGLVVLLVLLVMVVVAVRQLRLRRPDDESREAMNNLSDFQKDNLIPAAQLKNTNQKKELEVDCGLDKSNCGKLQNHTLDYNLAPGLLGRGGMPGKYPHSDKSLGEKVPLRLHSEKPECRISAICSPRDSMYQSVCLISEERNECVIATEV
full length mouse DLL4 on overexpressing CHO or HEK293 cells: residues 27-686 of Q9JI71
recombinant mouse DLL4, C-terminally His-tagged extracellular domain (R&D Systems): residues 27-532 of Q9JI71

Measured: binding

B1: DLLBII101G08 (VHH)
VHH: EVQLVESGGGLVQAGGSLRLSCAASGRTFSSYAMAWFRQAPGKEREFVAAIRWSGGTAYYADSVQGRFTISRDNAKNTVYLQMNSLKPEDTAVYYCANRAADTRLGPYEYDYWGQGTQVTVSS
notes: also called DLLBII101G8; 101G8; not shown: C-terminal c-myc tag and His6 tag
binds: [1] | [2] | [3]

B2: DLLBII129D08 (VHH)
VHH: B1 VHH with F37Y, F47Y, A101P, G106E, E109L
notes: not shown: C-terminal c-myc tag and (His)6 tag
binds: [1] | [3]

B3: DLLBII129E11 (VHH)
VHH: B1 VHH with F37Y, F47Y, A101P, G106R, E109L
notes: as for B2
binds: [1] | [3]

B4: DLLBII6B11 (VHH)
VHH: EVQLVESEGGLVQAGGSLRLSCAASGSTFSSYAMGWYRQAPGKQRELVAVISNGGITNYPNSVKGRFTISRDNAKNTVYLQMNSLKPEDTAVYYCFYSGSYYYPTDVHEYDYWGQGTQVTVSS
notes: also called DLLBII06B11; not shown: C-terminal c-myc tag and His6 tag
binds: [4] | [2] | [5] | [3]

B5: DLLBII104G01 (VHH)
VHH: EVQLVESGGGLVQAGGSLRLSCAASGFTFDDYAIGWFRQAPGKEREGVSCISSSDGSTYYADSVKGRFTISSDNAKNTVYLQMNSLKPEDTAVYYCATAWCDSSWYRSFVGYWGQGTQVTVSS
notes: also called DLLBII104G1; 104G1; not shown: C-terminal c-myc tag and His6 tag
binds: [4] | [2] | [3]

B6: DLLBII115A05 (VHH)
VHH: EVQLVESGGGLVQPGGSLRLSCAASGFTFGSYDMSWVRRSPGKGPEWVSSINSGGGSTYYADFVKGRFTISRDNAKNTLYLQMNSLKPEDTAVYYCAADRYIRARQGDYWGAYEYDYWGQGTQVTVSS
notes: also called DLLBII115A5; 115A5; not shown: C-terminal c-myc tag and His6 tag
binds: [6] | [7] | [8] | [1] | [9] | [2] | [10] | [11] | [5] | [12] | [3] | [13] | [14] | [15]

B7: DLLBII015 (VHH)
VHH: B6 VHH with F29I, S50A, F63Y, R103W, D108E, E114A
notes: as for B2
binds: [1] | [3]

B8: DLLBII133A09 (VHH)
VHH: B6 VHH with S50A, F63Y, R103W, D108E, E114A
notes: as for B2
binds: [1] | [3]

B9: DLLBII133G05 (VHH)
VHH: B6 VHH with S50A, A61T, F63Y, R103W, D108E, E114A
notes: as for B2
binds: [1] | [3]

B10: DLLBII136C07 (VHH)
VHH: B6 VHH with F63Y, R103W, D108E
notes: as for B2
binds: [1] | [3]

From patent publication US20110195494A1 (Boehringer Ingelheim, published 2011)
